Source: PubChem BioAssay AID686943 (Drosophila RNAi Screening Center, 2013)

Screen: 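Search across the genome for regulators of signalling from receptor tyrosine kinase to ERK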 (primary screen)
System: Drosophila S2R+ haemocyte-like cells expressing YFP-tagged ERK (Rolled)
Reagents: long dsRNA against Drosophila genes
Treatment: insulin stimulation versus unstimulated cells; dose and duration not given
Measured: 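Per-plate z-scores of phospho-ERK immunostaining normalised to YFP-tagged ERK, measured with and without insulin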
Reading the numbers: replicate 1, z-score of dpERK with insulin: higher = more active ERK per ERK-YFP after insulin
In all, the deposit lists about 23,000 reagents; this is an unselected part of those with a known target gene and a result. 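Extra replicates exist only for a retested subset of genes; insulin dose and duration not given; both raised and lowered dpERK matter.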 The numbers tell different reagents against one gene apart. A plus sign joins genes that one reagent is predicted to hit. Further read-outs or replicates are left out here. Not given: the amount of reagent, the time to read-out.

CG30060
- replicate 1, z-score of dpERK with insulin: -0.74

TfIIS
- replicate 1, z-score of dpERK with insulin: -0.05

CG32249 #1
- replicate 1, z-score of dpERK with insulin: 0.82

CG32249 #2
- replicate 1, z-score of dpERK with insulin: 1.12

CG32249 #3
- replicate 1, z-score of dpERK with insulin: -0.17

Mal-B1
- replicate 1, z-score of dpERK with insulin: 1.41

Nek2
- replicate 1, z-score of dpERK with insulin: 1.18

CG4691
- replicate 1, z-score of dpERK with insulin: -0.26

Rh4 + sina
- replicate 1, z-score of dpERK with insulin: 0.17

Mks1
- replicate 1, z-score of dpERK with insulin: -0.17

cos
- replicate 1, z-score of dpERK with insulin: -0.1

Coq8
- replicate 1, z-score of dpERK with insulin: -0.73

CG11426
- replicate 1, z-score of dpERK with insulin: 0.29

GATAd
- replicate 1, z-score of dpERK with insulin: -0.06

CG14736
- replicate 1, z-score of dpERK with insulin: 0.28

Nep7
- replicate 1, z-score of dpERK with insulin: -0.36

CG6726
- replicate 1, z-score of dpERK with insulin: -0.01

CG18131
- replicate 1, z-score of dpERK with insulin: -2.79

CCKLR-17D3 #1
- replicate 1, z-score of dpERK with insulin: 0.88

CCKLR-17D3 #2
- replicate 1, z-score of dpERK with insulin: 0.81

Vps8
- replicate 1, z-score of dpERK with insulin: -0.3

CG32793 #1
- replicate 1, z-score of dpERK with insulin: 0.93

CG32793 #2
- replicate 1, z-score of dpERK with insulin: 0.35

Zw10
- replicate 1, z-score of dpERK with insulin: -0.94

Osi13
- replicate 1, z-score of dpERK with insulin: -0.64

CG33158 #1
- replicate 1, z-score of dpERK with insulin: -0.56

CG33158 #2
- replicate 1, z-score of dpERK with insulin: -0.29

CG33158 #3
- replicate 1, z-score of dpERK with insulin: 0.56

CG7099
- replicate 1, z-score of dpERK with insulin: 0.16

CG14566
- replicate 1, z-score of dpERK with insulin: 0.42

CG3328
- replicate 1, z-score of dpERK with insulin: -0.16

Tim8
- replicate 1, z-score of dpERK with insulin: -0.64

CG12898
- replicate 1, z-score of dpERK with insulin: 0

E(var)3-9
- replicate 1, z-score of dpERK with insulin: 1.21

Moca-cyp
- replicate 1, z-score of dpERK with insulin: 1.59

CG32409
- replicate 1, z-score of dpERK with insulin: 0.23

Pkc98E
- replicate 1, z-score of dpERK with insulin: -1.01

CG31740
- replicate 1, z-score of dpERK with insulin: -0.48

Clp
- replicate 1, z-score of dpERK with insulin: 2.13

Est-6
- replicate 1, z-score of dpERK with insulin: -0.22

Records above whose target name begins with N or n:
Nek2
- replicate 1, z-score of dpERK with insulin: 1.18

Nep7
- replicate 1, z-score of dpERK with insulin: -0.36
